Library screening results

Measurements from “University of Dundee, Small-Polar-MMV Screening Library” (2021), ChEMBL document CHEMBL3988442.

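Viability assay of Plasmodium falciparum sporozoites; the read-out is not stated. The concentration is filed as 10 mM, unlikely as a test dose, so the dose is not known. The record gives no direction; compounds that gave an IC50 in retests scored well above the rest, so higher reads as lower viability. Strong results were mostly tested again. Size under these conditions: about 34,000 compounds, about 280 of them at 50% or above in at least one test.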

Values are the deposited “Percent Effect”, in %.
How 0% and 100% were set is not recorded. Most values in the screen are low, and negative values occur.
Compounds were drawn at random from those tested, without regard to their results.
Two or more numbers in one place are separate tests of the same structure; such repeats can differ widely.

Compound	percent effect
O=C(c1ccc[nH]1)N1CCC2(CC1)CC(Oc1cccnc1)CO2 (configuration not stated)	-7.55
Cc1cc(NC(=O)CN2CCN(c3nccs3)C(C)C2)n(C)n1 (configuration not stated)	-14.62
Clc1ccc2cccnc2c1CN1CCCC(Cn2cncn2)C1 (configuration not stated)	-13.78
O=C(c1ccco1)N1CCCC1C1CCN(Cc2ccccc2)CC1 (configuration not stated)	-10.48
CC(C)C(NC(=O)NCCNc1ncccn1)c1cccs1 (configuration not stated)	-1.106
CCc1n[nH]c(C2CN(C(=O)c3ccc4c(c3)CCC4)CCO2)n1 (configuration not stated)	-1.284 and 2.002 and -1.871
CC(C)c1n[nH]c(C2CN(C(=O)c3cc(C4CC4)[nH]n3)CCO2)n1 (configuration not stated)	-6.553
Cc1csc(N2CCCN(CCC(=O)NC(N)=O)CC2)n1	-1.434
CCc1cc(O)nc(C2CCCN2C(=O)c2cc(C)no2)n1 (configuration not stated)	-11.31
O=C(CN1CCc2c(ncn2C2CC2)C1)NC1CCOCC1	5.334
[H][C@]12CN(c3nccs3)CC[C@@]1(O)CCN(S(=O)(=O)N(C)C)C2	-25.45 and -21.5
COCCCNC(=O)CN(C)C(=O)c1cc2cc(C)ccc2nc1C	4.2
O=C(O)C(F)(F)F.c1ncn(Cc2cnc3n2CCN(Cc2ccsc2)CC3)n1	-4.498
Cc1ccc(NC2CCN(C(=O)c3sccc3C3CC3)CC2)nn1	6.785
Cc1nc(C2CCCN2C(=O)CCCn2cncn2)no1 (configuration not stated)	1.33
COCc1cccc(S(=O)(=O)NCc2cnn(C)c2C)c1	-3.482
Cn1cncc1CN1CC[C@](C)(O)[C@@H](Oc2cccc(F)c2)C1	14.39
Cc1ccc(CNC(=O)CCC(=O)NCCC(C)C)o1	14.36
Cc1ccnc(C2CCN(C(=O)CCn3ncc4ccccc43)C2)n1 (configuration not stated)	3.21
CCC(NC(=O)c1ccco1)c1ccccc1OCC(=O)N1CCCC1 (configuration not stated)	-14.73 and -19.08 and 13.37
Cc1noc(C)c1CN1CCC2(CC1)NC(=O)CC2c1ccncc1 (configuration not stated)	3.163
Cc1ccc(C)c(S(=O)(=O)NCCC(=O)NCc2ccoc2)c1	-5.392
CN(C)C(=O)N1CCc2c(nnn2C)C1COCc1ccccc1 (configuration not stated)	5.087
O=C(c1cccnc1N1CCOCC1)N1CCCC(n2ccnc2)C1 (configuration not stated)	0.1649
O=C(NCCNc1ccccn1)N1CCC(O)CC1	1.698
CCc1[nH]nc(NC(=O)c2ccc(Cl)cn2)c1C	12.39
Cc1ncsc1-c1nnc(C2CCN(Cc3cccc(Cl)c3)CC2)o1	4.854
Cl.O=C(NCc1ccc(Cl)cc1)C1=NOC2(CCNC2)C1 (configuration not stated)	-25.3
Cc1cc(C(F)F)nn1C(C)C(=O)NCc1ncc[nH]1 (configuration not stated)	6.84
CC(C)N1CCCC2(CCN(C(=O)CCCn3cncn3)C2)C1=O (configuration not stated)	-14.24
Cc1ccccc1OCCC(=O)N1CCc2nc(C)n(C)c(=O)c2CC1	1.065
Cc1nnc2n1CCN(C(=O)c1cc(Cl)c[nH]1)C2	-5.936
Cc1nc(C)n(CC2CN(CCc3ccncc3)CCO2)n1 (configuration not stated)	-8.146
CC(C)c1ncncc1C(=O)N1CCN(Cc2ccccn2)CC1	-2.106
N#Cc1ccc(CSCCN2CCOCC2)cc1	-0.5476
CCn1ccnc1CN1CCN(CC(O)Cn2cccn2)CC1 (configuration not stated)	1.127
[H][C@@]12CCC(=O)N(Cc3cccc(C)n3)[C@]1([H])CCN2CC1CCOCC1	-17.19
O=C(O)C(F)(F)F.[H][C@@]12CC(COCc3cccnc3)C[C@@]1([H])N(S(=O)(=O)C1CC1)CCO2 (some centres not stated)	5.373
Cn1ccc(C(=O)N2CCN(c3cc(C#N)ccn3)CC2)cc1=O	8.48
[H][C@@]12C[C@@H](c3nnc(C)[nH]3)O[C@]1([H])CN(C(=O)C(C)(C)CC)C2	4.88
CS(=O)(=O)N1CCOCC2(CN(Cc3ccco3)CCO2)C1.O=C(O)C(F)(F)F (configuration not stated)	-10.2
CCc1nc(CN(C(C)=O)C2CCN(CCc3cnn(C)c3)C2)no1 (configuration not stated)	13.24
COC(=O)CCNC(=O)c1ccoc1CN1c2ccccc2CC1C (configuration not stated)	-5.706
Cc1ccc(N2CCCC(N3CCC(CO)CC3)C2=O)cc1 (configuration not stated)	10.97
CC(C)c1nn(C)c(N(C)C)c1CNCc1cccc2cccnc12.Cl	8.684
CN(C)c1cncc(C2CCCN2S(=O)(=O)c2cn(C)cn2)n1 (configuration not stated)	4.706

Once more, the final 4:

| Compound | percent effect |
|---|---|
| `COC(=O)CCNC(=O)c1ccoc1CN1c2ccccc2CC1C` (configuration not stated) | -5.706 |
| `Cc1ccc(N2CCCC(N3CCC(CO)CC3)C2=O)cc1` (configuration not stated) | 10.97 |
| `CC(C)c1nn(C)c(N(C)C)c1CNCc1cccc2cccnc12.Cl` | 8.684 |
| `CN(C)c1cncc(C2CCCN2S(=O)(=O)c2cn(C)cn2)n1` (configuration not stated) | 4.706 |